Laboratory results as given in publication PMC11395111.
Read-outs that look alike come from different tables or passages of the source. No constants are given. Whether binding was seen depends on the method and setting. In cells and extracts the contact can be indirect. A yes stands for co-enrichment or nearness to the bait. Other partners may have been found.

Sequences of proteins named here, by UniProt entry; tags and fusion partners are left off. A change or cut given only in a name is not applied to a line headed by its entry.
UniProt O53943: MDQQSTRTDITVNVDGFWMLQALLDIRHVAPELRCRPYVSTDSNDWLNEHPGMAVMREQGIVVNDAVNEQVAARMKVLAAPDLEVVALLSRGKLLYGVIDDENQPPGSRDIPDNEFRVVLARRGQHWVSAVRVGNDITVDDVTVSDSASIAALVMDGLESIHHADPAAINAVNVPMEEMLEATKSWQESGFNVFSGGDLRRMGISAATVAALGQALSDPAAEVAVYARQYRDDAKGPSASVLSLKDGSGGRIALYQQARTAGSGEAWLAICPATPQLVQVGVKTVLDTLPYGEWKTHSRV
UniProt B2HK52: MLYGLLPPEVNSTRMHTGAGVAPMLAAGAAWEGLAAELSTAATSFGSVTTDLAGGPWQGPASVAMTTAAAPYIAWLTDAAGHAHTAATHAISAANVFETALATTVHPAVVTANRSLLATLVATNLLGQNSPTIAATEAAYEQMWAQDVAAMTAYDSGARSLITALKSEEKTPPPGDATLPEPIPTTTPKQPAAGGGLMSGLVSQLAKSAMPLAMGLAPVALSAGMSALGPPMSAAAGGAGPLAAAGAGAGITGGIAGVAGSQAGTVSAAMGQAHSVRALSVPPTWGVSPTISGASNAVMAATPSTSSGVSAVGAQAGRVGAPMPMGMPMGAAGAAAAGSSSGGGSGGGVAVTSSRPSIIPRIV
UniProt B2HPW7: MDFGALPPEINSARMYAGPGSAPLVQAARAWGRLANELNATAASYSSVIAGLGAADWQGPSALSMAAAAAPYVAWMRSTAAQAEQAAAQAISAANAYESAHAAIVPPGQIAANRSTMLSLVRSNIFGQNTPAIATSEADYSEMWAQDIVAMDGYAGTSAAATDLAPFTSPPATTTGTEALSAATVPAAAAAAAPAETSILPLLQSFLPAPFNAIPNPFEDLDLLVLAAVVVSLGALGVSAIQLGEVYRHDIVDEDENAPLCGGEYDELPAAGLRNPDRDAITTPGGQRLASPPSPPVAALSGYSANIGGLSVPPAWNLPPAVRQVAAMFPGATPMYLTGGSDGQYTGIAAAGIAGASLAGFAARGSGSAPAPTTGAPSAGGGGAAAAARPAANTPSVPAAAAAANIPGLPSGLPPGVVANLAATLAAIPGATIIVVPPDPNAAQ
UniProt B2HSV3: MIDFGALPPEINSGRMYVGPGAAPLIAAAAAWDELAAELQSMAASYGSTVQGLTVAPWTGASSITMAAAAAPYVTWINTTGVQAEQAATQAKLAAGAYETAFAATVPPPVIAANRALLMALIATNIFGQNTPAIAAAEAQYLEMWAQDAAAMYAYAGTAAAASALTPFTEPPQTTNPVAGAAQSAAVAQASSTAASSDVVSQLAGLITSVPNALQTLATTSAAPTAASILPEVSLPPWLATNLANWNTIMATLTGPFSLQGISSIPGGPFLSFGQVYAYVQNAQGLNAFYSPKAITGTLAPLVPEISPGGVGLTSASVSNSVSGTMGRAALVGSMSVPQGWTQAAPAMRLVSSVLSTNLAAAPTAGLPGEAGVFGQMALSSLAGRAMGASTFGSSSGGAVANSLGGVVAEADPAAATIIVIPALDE
UniProt B2HKX8: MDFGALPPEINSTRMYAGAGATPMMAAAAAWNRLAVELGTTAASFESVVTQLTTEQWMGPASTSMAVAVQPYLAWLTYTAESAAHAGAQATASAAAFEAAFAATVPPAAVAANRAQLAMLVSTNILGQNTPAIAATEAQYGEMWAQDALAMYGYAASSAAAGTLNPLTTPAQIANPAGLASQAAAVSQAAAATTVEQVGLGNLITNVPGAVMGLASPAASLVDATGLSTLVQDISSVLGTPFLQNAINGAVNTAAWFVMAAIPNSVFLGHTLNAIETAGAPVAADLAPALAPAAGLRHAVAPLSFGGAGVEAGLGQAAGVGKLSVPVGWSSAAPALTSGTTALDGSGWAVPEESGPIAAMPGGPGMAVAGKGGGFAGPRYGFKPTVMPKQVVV

Experiments:
GST-EspG5 [1] = biological target: GST-EspG5 (UniProt O53943); assay: affinity purification with mass spectrometry; […] (250 mM NaCl, 20 mM HEPES, 2 mM DTT); […]; only the target purified
GST-EspG5 [2] = biological target: GST-EspG5 (UniProt O53943); assay: as above; remark: listed apart in the source

In the case of MMAR_3578 (PPE) (from UniProt B2HK52), the binding (GST-EspG5 [1]) is reported as “binds”.

MMAR_0685 (PPE) (from UniProt B2HPW7) was tested, and the binding (GST-EspG5 [1]) was “binds”.

In the case of “PPE32 (M. marinum, MMAR_2684) (from UniProt B2HSV3)”, the binding (GST-EspG5 [1]) is reported as “binds”.

For “MMAR_1950 (PPE15_1) (from UniProt B2HKX8)”, the binding (GST-EspG5 [1]) was “binds”.

B1: PPE31 (M. marinum, MMAR_2683) (protein, UniProt B2HSV2 1-386)
chain: MTASLDFATLPPEINSARMYSGPGSAPMLAAASAWKGLAAELRVTVLSYDSVLRALTGEEWYGPASASMAAAAAPYVAWMSTTAAQAEESAVQAAAAAAAYEAAFSATVAPTVITANRAQLMVLVATNVLGQNTPAIAAVEAQYCEMWAQDAMAMYGYAGSSAAATRLSEFLEPQHNTNPAGLLAQQSTLAQLMSAVPNVLQGLASSNTSASAPSGLLSTLLSGNGQSWLATLWSEFGPNANIWNTIASTGFLLPSNMVTPFLGMLGTAAVADAAEDALGTTGSGALGGALSAPLGSVGGQAGLAAAGNAAIVGKLSVPPSWTGAAPLASPLGSALGGTPMVAPPPTAAAGMPGVPFGNMAGQPFGRALPQYGFRPTFVARPPAAG
With B1 the binding (GST-EspG5 [2]) was “binds”.
